Measurements published in US20100240093A1, “Isolated Staphylococcus Pseudolugdunensis” (priority 2006, published 2010).
At least one structure is not confirmed: it was looked up by name or label, or the drawing left a doubt.

Test system: 12 isolates
Test: Disc diffusion antimicrobial susceptibility testing, all isolates
Assay type: cell-based, Staphylococcus pseudolugdunensis
Protocol: In vitro antimicrobial susceptibility testing for amoxicillin-clavulanate, cefazolin, clindamycin, erythromycin, gentamicin, levofloxacin, minocycline, penicillin, rifampin, trimethoprim/sulfamethoxazole (SXT) and vancomycin was determined by a disc diffusion method in accordance with Clinical and Laboratory Standards Institute guidelines (CLSI Performance standards for antimicrobial disk susceptibility tests; Approved standard, 9th ed. (2006) Clinical and Laboratory Standards Institute, Wayne, Pa.).

For `CN(C)c1ccc(O)c2c1C[C@H]1C[C@H]3[C@H](N(C)C)C(O)=C(C(N)=O)C(=O)[C@@]3(O)C(O)=C1C2=O` [Minocycline], the “Susceptibility of all 12 isolates” value was “susceptible”.
